## Primary screen of a compound library

Protein sequences, listed by entry. Tags and fused reporters are not part of them.
UniProt E9BF75, entry or part of it: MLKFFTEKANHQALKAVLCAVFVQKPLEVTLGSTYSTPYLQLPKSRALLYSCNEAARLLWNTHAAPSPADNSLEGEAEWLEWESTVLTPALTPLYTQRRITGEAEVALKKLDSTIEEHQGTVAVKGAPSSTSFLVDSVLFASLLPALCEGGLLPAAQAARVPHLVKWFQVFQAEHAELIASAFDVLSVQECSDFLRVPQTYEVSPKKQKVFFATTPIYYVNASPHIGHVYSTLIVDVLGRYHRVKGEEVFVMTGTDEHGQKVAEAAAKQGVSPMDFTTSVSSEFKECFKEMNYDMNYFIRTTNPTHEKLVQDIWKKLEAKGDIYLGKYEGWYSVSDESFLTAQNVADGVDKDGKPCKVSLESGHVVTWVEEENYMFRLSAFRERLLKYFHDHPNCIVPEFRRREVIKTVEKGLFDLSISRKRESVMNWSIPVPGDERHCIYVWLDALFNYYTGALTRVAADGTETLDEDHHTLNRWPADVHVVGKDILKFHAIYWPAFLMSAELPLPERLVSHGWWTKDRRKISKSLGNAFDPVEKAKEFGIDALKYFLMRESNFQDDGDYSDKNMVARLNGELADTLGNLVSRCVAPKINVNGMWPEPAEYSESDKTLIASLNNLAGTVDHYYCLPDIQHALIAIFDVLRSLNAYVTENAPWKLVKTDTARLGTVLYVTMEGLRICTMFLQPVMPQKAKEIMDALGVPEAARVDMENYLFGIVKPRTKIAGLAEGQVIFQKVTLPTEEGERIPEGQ

From ChEMBL document CHEMBL3988442, “University of Dundee, Small-Polar-MMV Screening Library” (2021).

All values are in %.
The controls that fix the scale are not given in the record; negative values are as filed.
Compounds were drawn at random from those tested, without regard to their results.
A dash means the value is not listed here; it may have been measured.

Mtb heat-shock: 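Assay on Mycobacterium tuberculosis, filed only as a heat shock assay from Cornell; the read-out is not stated. The concentration is filed as 10 mM, unlikely as a test dose, so the dose is not known. The record gives no direction; compounds that gave an IC50 in retests scored well above the rest, so higher reads as stronger inhibition. Of about 69,000 compounds tested this way, about 930 (1.4%) reached 50% or more in at least one test.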
LdMetRS: 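Primary screen of methionyl-tRNA synthetase; the read-out is not stated. Target: Methionyl-tRNA synthetase (putative), Leishmania donovani (UniProt E9BF75). The test concentration is not given. The values are filed as inhibition. Size under these conditions: about 68,000 compounds, about 24 of them at 50% or above in at least one test.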
Mtb growth Cornell: 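Whole-cell assay for inhibitors of Mycobacterium tuberculosis growth, labelled Cornell in the record; the read-out is not stated. The concentration is filed as 10 mM, unlikely as a test dose, so the dose is not known. The record gives no direction; compounds strong in two other growth screens of this library score well above the rest, so higher reads as stronger inhibition. Of about 53,000 compounds tested this way, about 900 (1.7%) reached 50% or more in at least one test.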

| compound | Mtb heat-shock | LdMetRS | Mtb growth Cornell |
|---|---|---|---|
| `COc1cccc2c1N(Cc1noc(C3CC3)n1)CCC2` | -13.94 | 8.901 | -40.72 |
| `CN(C)c1ncc(CN2CCOC(C(=O)Nc3ccccc3)C2)cn1` (centres unmarked) | -2.205 | 8.014 | - |
| `CCCN1CCC(N2CCC(Cn3cc(CC(C)O)nn3)CC2)CC1` (centres unmarked) | -103.8 | 9.366 | - |
| `CC(C)OC(C)c1nnc(SCC(=O)O)n1-c1ccc(F)cc1F` (centres unmarked) | 30.91 | 6.747 | -6.124 |
| `O=C(O)C(F)(F)F.O=C(c1ccco1)N1CCOCC2(C1)CN(c1cccnc1)C(=O)CO2` (centres unmarked) | -36.47 | - | 16.37 |
| `Cc1ccc(CC(=O)N2CCCC(c3ccn[nH]3)C2)cn1` (centres unmarked) | -3.291 | 3.492 | - |
| `CCc1nc(C2CCCN2C(=O)c2ccc(=O)n(CC)n2)no1` (centres unmarked) | -21.53 | -8.333 | -66.38 |
| `CC(=O)N1CCC(N2CCOC[C@H]2c2nc(-c3ccccc3)c[nH]2)CC1` | -40.6 | 11.19 | 19.03 |
| `CN(Cc1csc(-c2cccs2)n1)CC(O)CO` (centres unmarked) | -25.33 | 4.878 | - |
| `[H][C@]12CC[C@]([H])(CN(Cc3ccc4ccccc4n3)C1)N(CCOC)C2` | 46.17 | - | 6.597 |
| `CCCN1C[C@H]2CC[C@@H]1CN(Cc1cccc(O)c1)C2` | - | 3.78 | - |
| `Cc1cc(-c2cnc(N(C)C)nc2C2CCCCN2C(=O)C2CC2)on1` (centres unmarked) | -1.967 | 13.71 | 23.95 |
| `Cn1nnc2c1CCN(CC1CC1)C2COCC1CC1.O=C(O)C(F)(F)F` (centres unmarked) | 1.3 | - | -2.35 |
| `NC(=O)c1cc2c(nc1Oc1cccc(CN3CCCC3)c1F)CCC2` | 15.17 | 22.4 | 11.47 |
| `Cn1nccc1-c1nnn2c1COC(CNCc1nccs1)C2` (centres unmarked) | - | 4.375 | - |
| `CN(C)c1cnn(CC(=O)N2CCCCCC2)c(=O)c1` | -4.906 | 19.23 | 10.23 |
| `CSCc1noc(-c2ccc(C)c(N3CCNC3=O)c2)n1` | 10.35 | 12.61 | - |
| `CS(=O)(=O)N1CCC2(CC1)CN(CC1CCOC1)c1ccccc12` (centres unmarked) | - | 4.134 | - |
| `Cc1nn(C)c(C)c1CC(=O)NCC1(C(N)=O)CCOCC1` | 2.818 | 13.33 | -22.67 |
| `CN1CCN(C(=O)CC2CCN(CCc3ccccn3)CC2)CC1` | -12.63 | 17.36 | - |
| `Cn1cc(CN2CC3(CCN(Cc4ccsc4)C3)C2)cn1` | -48.3 | 2.222 | -46.37 |
| `Cc1c(COC(C)C)cccc1NC(=O)N1CCC(N2CCCC2)C1` (centres unmarked) | -7.406 | 11.02 | - |
| `Cc1ccc(C(=O)N2CCN(Cc3nc(C(C)C)no3)CC2)c(=O)[nH]1` | 21.48 | 7.302 | 16.31 |
| `Nc1nccc(-c2cccc3ccnn23)n1` | -13.12 | 10.31 | -6.998 |
| `O=C(CN1CCOc2ccccc2C1)NCc1cc2n(n1)CCCNC2` | -33.12 | 3.876 | 9.74 |
| `CNC(=O)[C@@H]1C[C@@H](N)CN1C(=O)CCSCc1ccccc1` | -24.43 | 11.76 | 1.756 |
| `CN(C)CCN1CCCC12CCN(C(=O)c1cccnc1)CC2.O=C(O)C(F)(F)F.O=C(O)C(F)(F)F` | -6.366 | - | 5.525 |
| `CSCCCn1ccnc1-c1cccc(C#N)c1` | -14.41 | 2.93 | - |
| `COCc1nc2ncc3c(=O)n(-c4cccc(OC)c4)ccc3n2n1` | -13.6 | 11.75 | -36.06 |
| `CCc1n[nH]c(C(=O)N2CCC3(CCCN(CCOC)C3=O)C2)c1C` (centres unmarked) | 12.63 | 17.14 | -30.26 |
| `CS(=O)(=O)N1CCc2[nH]cnc2C12CCN(C(=O)c1ccccc1)CC2` | -1.19 | 9.929 | 3.367 |
| `CC(NC(=O)NCC1(c2ccc(Cl)cc2)CC1)c1nncn1C` (centres unmarked) | -13.46 | 13.69 | 7.99 |
| `Cl.FC(F)(F)c1nc(C2CCNCC2)no1` | -8.269 | - | 22.99 |
| `CC(C)(C)C(=O)NCCn1ccc(-c2ccccn2)n1` | 4.909 | 13.02 | - |
| `CNS(=O)(=O)c1cc(C(=O)NC2COc3ccccc32)cc(C)c1C` (centres unmarked) | 6.066 | 11.26 | - |
| `CC(=O)N1CC(=O)N(c2ccccc2)CC12CCN(Cc1nccs1)C2.O=C(O)C(F)(F)F` (centres unmarked) | -14.76 | - | -2.169 |
| `CN(C)c1nc2c(c(N3CCc4ccccc4C3)n1)CCNC2` | 101.7 | 41.52 | 60.07 |
| `Cc1cc(C)n(CC(C)NCc2nncn2C2CCCCC2)n1` (centres unmarked) | 2.036 | 14.61 | -27.93 |
| `CC(NC(N)=O)C(=O)NCc1ccnc(Oc2ccc(F)cc2)c1` (centres unmarked) | -15.96 | 10.87 | 6.21 |
| `CCCc1noc(CCC(=O)N2CCCC2c2ccncc2)n1` (centres unmarked) | -7.71 | 14.37 | - |
| `CC(C)Oc1ncc(C(=O)N2CCc3ccc(O)cc3C2)cc1Cl` | 10.12 | 12.59 | 48.44 |
| `[H][C@@]12CCN(C(=O)c3cccnc3OC)C[C@@]1([H])O[C@H](c1noc(C)n1)C2` | -23.05 | - | -9.871 |
| `Cc1ccc(NC(=O)c2coc(C)n2)c(C)c1` | -1.436 | 6.723 | 2.34 |
| `c1nc(N2CCCC(Cn3cncn3)C2)c2ccsc2n1` (centres unmarked) | -11.49 | 1.748 | -20.35 |
| `O=C(Nc1ccccc1OCC(F)F)N[C@@H]1C=C[C@H](CO)C1` | 3.493 | 14.51 | 12.91 |
| `O=C(O)C(F)(F)F.[H][C@]12CCC(=O)N(c3cccnc3)[C@@]1([H])CCN2C(=O)Cc1cccs1` | -21.94 | - | 4.016 |
| `O=S1(=O)COCCN1CCCOc1ccc(F)cc1` | 15.86 | -2.431 | -9.952 |
| `CN(C)CCn1c2c(ccc1=O)CC(NCc1cnn(C)c1)CC2` (centres unmarked) | - | 8.211 | - |
| `c1csc(-c2noc(CN3CCc4c(ncn4C4CC4)C3)n2)c1` | 1.844 | 15.04 | 34.19 |
| `Cc1nc(CN2C[C@@H]3CN(c4ncc(F)cn4)C[C@@H]3C2=O)cs1` | - | 8.014 | - |
| `Cc1ccc(CN2CCCn3nnc(COCCN(C)C)c3C2)s1.O=C(O)C(F)(F)F.O=C(O)C(F)(F)F` | 4.777 | - | 10.33 |
| `Cc1ccn(-c2ccccc2NCc2cccnc2C)n1` | -13.36 | 7.389 | -5.22 |
| `Cc1nn(CC(=O)NCc2cc3n(n2)CCCN(CC(C)C)C3)cc1Cl` | -27.36 | 0.6849 | -8.623 |
| `CC(C)n1cnnc1C1CCCN(S(=O)(=O)c2c[nH]cn2)C1` (centres unmarked) | -33.08 | 5.389 | -28.62 |
| `CCCN1CCN(c2nc(N)nc3c2nc(C)n3C)CC1` | -20.31 | 10.76 | 16.05 |
| `CC(Cc1ccc2c(c1)OCO2)c1cn(CCc2c[nH]cn2)nn1` (centres unmarked) | 2.648 | 15.85 | -10.86 |
| `Cn1ccnc1SCCNc1ccnc(C(F)(F)F)n1` | -3.269 | 12.81 | -17.69 |
| `Cc1ccc(-c2cc(C(=O)N3CCCC3c3cccnc3)[nH]n2)o1` (centres unmarked) | 17.8 | 12.09 | - |
| `CC(C)(O)C1CCCN(C(=O)Nc2nc(-c3ccccc3)ns2)C1` (centres unmarked) | 6.141 | 10.65 | 24.52 |
| `CCN(CC)C(=O)CN(C)C(=O)c1cc(-c2cccc(Cl)c2)no1` | 3.76 | 10.82 | 6.734 |

The first 7 entries again:

{"compound": "COc1cccc2c1N(Cc1noc(C3CC3)n1)CCC2", "Mtb heat-shock": -13.94, "LdMetRS": 8.901, "Mtb growth Cornell": -40.72}
{"compound": "CN(C)c1ncc(CN2CCOC(C(=O)Nc3ccccc3)C2)cn1", "stereo": "centres unmarked", "Mtb heat-shock": -2.205, "LdMetRS": 8.014}
{"compound": "CCCN1CCC(N2CCC(Cn3cc(CC(C)O)nn3)CC2)CC1", "stereo": "centres unmarked", "Mtb heat-shock": -103.8, "LdMetRS": 9.366}
{"compound": "CC(C)OC(C)c1nnc(SCC(=O)O)n1-c1ccc(F)cc1F", "stereo": "centres unmarked", "Mtb heat-shock": 30.91, "LdMetRS": 6.747, "Mtb growth Cornell": -6.124}
{"compound": "O=C(O)C(F)(F)F.O=C(c1ccco1)N1CCOCC2(C1)CN(c1cccnc1)C(=O)CO2", "stereo": "centres unmarked", "Mtb heat-shock": -36.47, "Mtb growth Cornell": 16.37}
{"compound": "Cc1ccc(CC(=O)N2CCCC(c3ccn[nH]3)C2)cn1", "stereo": "centres unmarked", "Mtb heat-shock": -3.291, "LdMetRS": 3.492}
{"compound": "CCc1nc(C2CCCN2C(=O)c2ccc(=O)n(CC)n2)no1", "stereo": "centres unmarked", "Mtb heat-shock": -21.53, "LdMetRS": -8.333, "Mtb growth Cornell": -66.38}